Data taken from ChEMBL document CHEMBL3988442, “University of Dundee, Small-Polar-MMV Screening Library” (2021).

Amino acid sequences for entries named in this document (tags omitted).
UniProt E9BF75, entry or part of it: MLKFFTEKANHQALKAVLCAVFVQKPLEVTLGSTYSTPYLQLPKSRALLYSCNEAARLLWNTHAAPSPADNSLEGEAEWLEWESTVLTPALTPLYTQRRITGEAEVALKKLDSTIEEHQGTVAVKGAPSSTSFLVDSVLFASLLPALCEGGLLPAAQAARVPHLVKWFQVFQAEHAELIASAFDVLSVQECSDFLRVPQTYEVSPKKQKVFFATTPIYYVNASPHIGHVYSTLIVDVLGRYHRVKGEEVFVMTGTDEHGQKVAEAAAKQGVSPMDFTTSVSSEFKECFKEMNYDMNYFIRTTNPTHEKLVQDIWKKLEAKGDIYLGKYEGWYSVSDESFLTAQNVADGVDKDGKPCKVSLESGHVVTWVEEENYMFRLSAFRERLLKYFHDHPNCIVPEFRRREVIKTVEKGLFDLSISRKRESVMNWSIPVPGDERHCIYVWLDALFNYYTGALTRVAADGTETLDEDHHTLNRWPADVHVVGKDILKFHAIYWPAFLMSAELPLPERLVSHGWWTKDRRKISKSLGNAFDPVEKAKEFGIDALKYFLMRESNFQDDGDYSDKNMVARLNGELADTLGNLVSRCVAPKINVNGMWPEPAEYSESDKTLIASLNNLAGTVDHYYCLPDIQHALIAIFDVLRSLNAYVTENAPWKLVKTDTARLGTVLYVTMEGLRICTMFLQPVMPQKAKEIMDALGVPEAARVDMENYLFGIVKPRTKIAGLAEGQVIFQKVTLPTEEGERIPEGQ

Results are percentages, as filed. The controls that fix the scale are not given in the record; negative values are as filed. Compounds were drawn at random from those tested, without regard to their results. A dash means the value is not listed here; it may have been measured.

A: 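Assay on Mycobacterium tuberculosis, filed only as a heat shock assay from Cornell; the read-out is not stated. The concentration is filed as 10 mM, unlikely as a test dose, so the dose is not known. The record gives no direction; compounds that gave an IC50 in retests scored well above the rest, so higher reads as stronger inhibition. Of about 69,000 compounds tested this way, about 930 (1.4%) reached 50% or more in at least one test.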
B: 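Whole-cell assay for inhibitors of Mycobacterium tuberculosis growth, labelled Cornell in the record; the read-out is not stated. The concentration is filed as 10 mM, unlikely as a test dose, so the dose is not known. Higher means stronger inhibition (inferred from two other growth screens of the library). Of about 53,000 compounds tested this way, about 900 (1.7%) reached 50% or more in at least one test.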
C: 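Primary screen of methionyl-tRNA synthetase; the read-out is not stated. Target: Methionyl-tRNA synthetase (putative), Leishmania donovani (UniProt E9BF75). The test concentration is not given. Values are per cent inhibition. Of about 68,000 compounds tested this way, about 24 (0.035%) reached 50% or more in at least one test.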

| SMILES | A | B | C |
|---|---|---|---|
| `CCN(Cc1ccncc1)C(=O)C(C)n1ccnc1C(C)C` (stereo not given) | -17.66 | - | 11.75 |
| `O=C(c1cc(Br)c[nH]1)N1CCN(Cc2ccco2)CC1` | 1.71 | -16.97 | 2.997 |
| `O=C(O)C(F)(F)F.[H][C@@]12CCN(Cc3cnn(C)c3)[C@@]1([H])CCN2C(=O)c1cccc(F)c1` | -0.6323 | -40.39 | - |
| `CN1CCN(CCNC(=O)C(OC2CCCC2)c2ccccc2)CC1` (stereo not given) | 3.823 | 8.231 | 11.29 |
| `CCC1CN(CC(=O)NCC(C)C)CCO1` (stereo not given) | 3.185 | 4.204 | 6.774 |
| `CCCC(O)CN1CCC(=O)N(C)Cc2cc(F)ccc21` (stereo not given) | 66.32 | -24.49 | 1.918 |
| `O=S(=O)(NCC1CCN(c2ccccn2)CC1)c1ccccc1F` | 4.021 | -10.23 | 9.804 |
| `CCn1cc(NC(=O)c2c(C)nn(C)c2C)c(C(N)=O)n1` | -9.169 | 22.21 | 9.353 |
| `N#Cc1ccc(NCc2cccc(COC3CCOCC3)c2)nc1` | -1.838 | 12.95 | 10.14 |
| `c1cncc(COCc2nnc3n2CCN(Cc2ccsc2)C3)c1` | - | - | 2.362 |
| `CN1C[C@@H]2COC[C@]2(C(=O)NCc2cccs2)C1` | - | - | 0.7299 |
| `COc1ccc(C(=O)N2Cc3c(Cn4ccnc4)nn(C)c3C2)cc1` | 11.42 | - | 18.47 |
| `CC(C)C(C)(C#N)NC(=O)Cn1cc(-c2ccccc2)cn1` (stereo not given) | 8.083 | - | 15.24 |
| `CC(C)(NS(C)(=O)=O)c1nc(-c2cccc(Cl)c2)no1` | 0.6564 | 13.73 | 9.677 |
| `CC(=O)NC1CCN(c2cc(-c3ccccc3)nc3c(C)c(C)nn23)C1` (stereo not given) | 7.098 | 20.45 | 18.44 |
| `O=C(O)CC[C@@H]1CN(c2ncnc3[nH]ccc23)CC[C@@H]1N1CCOCC1` | -32.72 | -12.87 | 16.33 |
| `CC(C)(C)CC(=O)NCCn1nc(C2CCNC2)c2cccnc21.Cl` (stereo not given) | -6.158 | 1.54 | - |
| `[H][C@@]12CC(=O)/C(=C(\C)NC(=O)c3cccs3)[C@]1([H])C2(C)C` | 1.565 | 5.155 | - |
| `NC(=O)Cn1ccnc1C1CCCN(CCSc2ccccc2)C1` (stereo not given) | -29.46 | -2.271 | 14.37 |
| `Cc1ccc(S(=O)(=O)N2C[C@H]3C[C@H](NC(=O)C(C)C)[C@H]3C2)cc1` | - | - | 7.767 |
| `Cc1cnc(CNC(=O)NCc2cccnc2N(C)C)s1` | -13.32 | 12.19 | 10.93 |
| `COc1ccc(CNc2c(C)nn(C(C)C)c2C)cc1OC.Cl` | 12.96 | 15.14 | - |
| `COc1nccnc1N1CCN(Cc2cccc(F)c2)C(=O)C1` | 1.524 | -36.35 | -1.075 |
| `O=C(Cc1cccc(F)c1)NC1CCCc2cn[nH]c21` (stereo not given) | -13.82 | 22.04 | 19.24 |
| `Cc1ccc2c(cnn2CCC(=O)NCc2csc(C3CC3)n2)c1` | -5.696 | -16.22 | 8.947 |
| `CCn1cc(Br)c(C(=O)NCc2cnn(C)c2)n1` | 6.336 | 7.43 | 10.24 |
| `O=C(O)c1ccc(CC2CCN(S(=O)(=O)N3CCOCC3)C2)cc1` (stereo not given) | -0.6192 | - | -2.5 |
| `CCS(=O)(=O)N1Cc2[nH]nc(COCc3cccnc3)c2C1.O=C(O)C(F)(F)F` | 28.84 | -9.264 | - |
| `CC(C)c1nn(C)c(N(C)C)c1CNC1CCCOc2ccccc21` (stereo not given) | -7.529 | - | 12.15 |
| `CCNC(=O)NCc1cnn(-c2ccc(F)cc2F)c1` | -11.21 | - | 8.078 |
| `CC(NC(=O)NCCc1cnn(C)c1)c1ccc(Cl)s1` (stereo not given) | 7.325 | - | 15.19 |
| `O=C(CCNCc1cccc2c1OCCCO2)NC1CCCC1` | -153.2 | - | 6.949 |
| `O=C(CC1CCCC1)NCCS(=O)(=O)N1CCN(c2ccccc2)CC1` | -24.73 | 24.64 | 6.497 |
| `[H][C@@]12CN(C(=O)N3CCOCC3)C[C@]1([H])OCCN2C(=O)c1ccco1` | -17.78 | 9.062 | - |
| `O=C(O)C(F)(F)F.O=C(O)C(F)(F)F.c1cn2c(n1)CN(CC1CC1)CC(CN1CCOCC1)C2` (stereo not given) | -3.506 | 10.87 | - |
| `CN1CC2(CCN(C(=O)c3coc4c3C(=O)CCC4)C2)OC1=O` (stereo not given) | 18.33 | -2.539 | 15.96 |
| `Cc1cn2c(n1)CCC(NC(=O)c1c[nH]c(C)n1)C2` (stereo not given) | -8.708 | - | 16.78 |
| `c1cc(CN2C[C@@H]3OCCN(CC4CCCO4)[C@@H]3C2)cs1` (stereo not given in full) | - | - | 3.333 |
| `CCN(C)C(=O)[C@H]1C[C@@](CC(C)C)(C(=O)OC)N(C)[C@H]1c1cccnc1` | -6.489 | 15.93 | 12.63 |
| `Cc1ccc2c(c1)c(C)cc(=O)n2CCCN` | -1.163 | 6.018 | -1.679 |
| `CN(C)c1cc2c(nn1)CCN(C(=O)Cc1noc3ccccc13)C2` | -1.679 | 7.988 | 11.66 |
| `CC(SCC(=O)NCCC#N)c1ccc(Cl)cc1` (stereo not given) | -3.386 | -54.54 | 6.793 |
| `CC(=O)N1[C@H](Cn2cncn2)C[C@@H]2CN(S(C)(=O)=O)CC[C@@H]21` | - | - | 9.449 |
| `Cc1nnc(SCC(=O)NCc2ccc3c(c2)CCC(=O)N3)s1` | 6.533 | -12.75 | 4.7 |
| `CN1CC2(CCCCN2C(=O)c2ccsc2)CC1=O` (stereo not given) | 2.641 | -18.02 | 6.731 |

The first 5 entries again:

Result for CCN(Cc1ccncc1)C(=O)C(C)n1ccnc1C(C)C (stereo not given) was A: -17.66%; C: 11.75%.
Result for O=C(c1cc(Br)c[nH]1)N1CCN(Cc2ccco2)CC1 was A: 1.71%; B: -16.97%; C: 2.997%.
Result for O=C(O)C(F)(F)F.[H][C@@]12CCN(Cc3cnn(C)c3)[C@@]1([H])CCN2C(=O)c1cccc(F)c1 was A: -0.6323%; B: -40.39%.
Result for CN1CCN(CCNC(=O)C(OC2CCCC2)c2ccccc2)CC1 (stereo not given) was A: 3.823%; B: 8.231%; C: 11.29%.
Result for CCC1CN(CC(=O)NCC(C)C)CCO1 (stereo not given) was A: 3.185%; B: 4.204%; C: 6.774%.